Measured values from article PMC3748026.
The exact form of at least one protein or probe is not confirmed. For part of these data: Negatives hold for the conditions tested. For part of these data: Weaker means in comparison with the reference protein, sequence or condition of that experiment.

Chains of the proteins cited; added tags and fusions are not shown. Chains listed by the source or under a name are the forms on record and can include a tag or linker.
GINS complex (human), one chain, as listed by the source, chain 4 of 4: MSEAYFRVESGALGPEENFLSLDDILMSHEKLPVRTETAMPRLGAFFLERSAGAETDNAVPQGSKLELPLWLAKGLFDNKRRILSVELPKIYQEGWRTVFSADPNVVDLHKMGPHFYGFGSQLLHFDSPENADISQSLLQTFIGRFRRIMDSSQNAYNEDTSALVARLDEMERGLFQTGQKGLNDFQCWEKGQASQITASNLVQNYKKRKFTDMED
GINS complex (human), one chain, as listed by the source, chain 2 of 4: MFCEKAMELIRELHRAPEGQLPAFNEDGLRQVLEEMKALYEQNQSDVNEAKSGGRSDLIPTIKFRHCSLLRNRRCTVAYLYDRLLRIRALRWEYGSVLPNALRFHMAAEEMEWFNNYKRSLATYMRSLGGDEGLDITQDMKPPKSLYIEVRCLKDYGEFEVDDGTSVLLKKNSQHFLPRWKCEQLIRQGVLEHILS
GINS complex (human), one chain, as listed by the source, chain 3 of 4: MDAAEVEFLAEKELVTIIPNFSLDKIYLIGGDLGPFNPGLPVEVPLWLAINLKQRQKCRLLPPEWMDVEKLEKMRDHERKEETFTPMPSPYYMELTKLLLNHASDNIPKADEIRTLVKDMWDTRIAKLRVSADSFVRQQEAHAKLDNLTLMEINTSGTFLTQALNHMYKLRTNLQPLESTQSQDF
GINS complex (human), one chain, as listed by the source, chain 1 of 4: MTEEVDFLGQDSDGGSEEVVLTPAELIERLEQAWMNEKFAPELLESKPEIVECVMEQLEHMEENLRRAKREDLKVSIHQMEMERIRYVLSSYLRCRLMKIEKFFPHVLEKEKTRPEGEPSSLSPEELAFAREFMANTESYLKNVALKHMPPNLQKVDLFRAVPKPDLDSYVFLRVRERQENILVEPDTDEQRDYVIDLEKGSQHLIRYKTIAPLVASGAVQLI

Tests used:
Test in all cases: EMSA
GINS complex (human) = settings: 0.5 mM ATPgS, 25-400 nM GINS, weak binding, EMSA: 25 mM Tris-HCl pH 7.5, 40 mM Na acetate, 10 mM Mg acetate, 20 mM 2-mercaptoethanol, 0.25 mg/ml BSA, 30 C 30 min, recombinant protein, label: 5'-32P, single-stranded DNA
[1] = tested on: Mcm4/6/7 complex + GINS complex; settings: 0.5 mM ATPgS, GINS does not change Mcm4/6/7-DNA migration, no joint complex (Mcm4/6/7 itself binds), EMSA: 25 mM Tris-HCl pH 7.5, 40 mM Na acetate, 10 mM Mg acetate, 20 mM 2-mercaptoethanol, 0.25 mg/ml BSA, 30 C 30 min, recombinant protein, protein details: His6-Mcm4, Mcm7-Flag, label: 5'-32P, single-stranded DNA
Mcm2-7 complex (mouse) = settings: 0.5 mM ATPgS, very weak versus Mcm4/6/7, EMSA: 25 mM Tris-HCl pH 7.5, 40 mM Na acetate, 10 mM Mg acetate, 20 mM 2-mercaptoethanol, 0.25 mg/ml BSA, 30 C 30 min, recombinant protein, protein details: Mcm7-His6, His6-Mcm4, Mcm5-His6-Flag, label: 5'-32P, single-stranded DNA

## CCACACATGATTTGTTTGCTCCCTGAAATGATCTATATTTAATATATAATGTATATTCCCTCGGGATTTTTTATTTTGTGTTATTCCACGGCATGAAAAACAAAAAACATTCTTCTCATCCTTGGTCCCTCA [132-mer pyrimidine-rich oligonucleotide]
GINS complex (human)
  binding result: binds more weakly
[1]
  binding result: no binding
Mcm2-7 complex (mouse)
  binding result: binds more weakly
